Results from the supplement of paper PMC8728848.
This is one part of the list.

Columns and labels:
Assay in all cases: glycan array binding signal (z-score within array); higher = stronger binding
Settings in all cases: glycan notation: IUPAC condensed, linker removed
[1] = molecular target: Gal(b1-3)[Fuc(a1-4)]GlcNAc(b1-6)GalNAc
Summary of the method: (§1)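 Glycan array data were curated from 3228 arrays in the Consortium for Functional Glycomics database and kept only where the protein sequence was available. Glycan names were converted to IUPAC-condensed notation, and columns mapping to the same glycan were averaged. The binding signal is a within-array Z-score, averaged across arrays of the same protein sequence at different concentrations or buffers and across linkers. Negative Z-scores can be read as non-binding.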

[2] = molecular target: Gal(b1-3)[GlcNAc(b1-6)]GalNAc
Summary of the method: as §1

[3] = molecular target: Gal(b1-3)[Neu5Ac(a2-6)]GalNAc
Summary of the method: as §1

[4] = molecular target: Gal(b1-3)[Neu5Ac(a2-6)]GlcNAc(b1-4)Gal(b1-4)Glc
Summary of the method: as §1

[5] = molecular target: Gal(b1-3)[Neu5Ac(b2-6)]GalNAc
Summary of the method: as §1

Gal(b1-4)Gal = molecular target: Gal(b1-4)Gal
Summary of the method: as §1

[6] = molecular target: Gal(b1-4)GalNAc(a1-3)[Fuc(a1-2)]Gal(b1-4)GlcNAc
Summary of the method: as §1

[7] = molecular target: Gal(b1-4)GalNAc(b1-3)[Fuc(a1-2)]Gal(b1-4)GlcNAc
Summary of the method: as §1

Gal(b1-4)Glc = molecular target: Gal(b1-4)Glc
Summary of the method: as §1

Gal(b1-4)Glc6S = molecular target: Gal(b1-4)Glc6S
Summary of the method: as §1

Gal(b1-4)GlcNAc = molecular target: Gal(b1-4)GlcNAc
Summary of the method: as §1

[8] = molecular target: Gal(b1-4)GlcNAc(a1-6)Gal(b1-4)GlcNAc
Summary of the method: as §1

Gal(b1-4)GlcNAc(b1-2)Man = molecular target: Gal(b1-4)GlcNAc(b1-2)Man
Summary of the method: as §1

[9] = molecular target: Gal(b1-4)GlcNAc(b1-2)Man(a1-3)Man(b1-4)GlcNAc(b1-4)GlcNAc
Summary of the method: as §1

[10] = molecular target: Gal(b1-4)GlcNAc(b1-2)Man(a1-3)[Gal(b1-4)GlcNAc(b1-2)Man(a1-6)]Man(b1-4)GlcNAc(b1-4)GlcNAc
Summary of the method: as §1

[11] = molecular target: Gal(b1-4)GlcNAc(b1-2)Man(a1-3)[Gal(b1-4)GlcNAc(b1-2)Man(a1-6)]Man(b1-4)GlcNAc(b1-4)[Fuc(a1-6)]GlcNAc
Summary of the method: as §1

[12] = molecular target: Gal(b1-4)GlcNAc(b1-2)Man(a1-3)[Gal(b1-4)GlcNAc(b1-2)Man(a1-6)][Gal(b1-4)GlcNAc(b1-4)]Man(b1-4)GlcNAc(b1-4)[Fuc(a1-6)]GlcNAc
Summary of the method: as §1

[13] = molecular target: Gal(b1-4)GlcNAc(b1-2)Man(a1-3)[Gal(b1-4)GlcNAc(b1-2)Man(a1-6)][GlcNAc(b1-4)]Man(b1-4)GlcNAc(b1-4)[Fuc(a1-6)]GlcNAc
Summary of the method: as §1

[14] = molecular target: Gal(b1-4)GlcNAc(b1-2)Man(a1-3)[GlcNAc(b1-2)Man(a1-6)]Man(b1-4)GlcNAc(b1-4)GlcNAc
Summary of the method: as §1

[15] = molecular target: Gal(b1-4)GlcNAc(b1-2)Man(a1-3)[GlcNAc(b1-4)][Gal(b1-4)GlcNAc(b1-2)Man(a1-6)]Man(b1-4)GlcNAc(b1-4)GlcNAc
Summary of the method: as §1

[16] = molecular target: Gal(b1-4)GlcNAc(b1-2)Man(a1-3)[Man(a1-6)]Man(b1-4)GlcNAc(b1-4)GlcNAc
Summary of the method: as §1

[17] = molecular target: Gal(b1-4)GlcNAc(b1-2)Man(a1-6)Man(b1-4)GlcNAc(b1-4)GlcNAc
Summary of the method: as §1

[18] = molecular target: Gal(b1-4)GlcNAc(b1-2)Man(a1-6)[GlcNAc(b1-2)Man(a1-3)]Man(b1-4)GlcNAc(b1-4)GlcNAc
Summary of the method: as §1

[19] = molecular target: Gal(b1-4)GlcNAc(b1-2)Man(a1-6)[Man(a1-3)]Man(b1-4)GlcNAc(b1-4)GlcNAc
Summary of the method: as §1

[20] = molecular target: Gal(b1-4)GlcNAc(b1-2)[Gal(b1-4)GlcNAc(b1-4)]Man(a1-3)[Gal(b1-4)GlcNAc(b1-2)Man(a1-6)]Man(b1-4)GlcNAc(b1-4)GlcNAc
Summary of the method: as §1

[21] = molecular target: Gal(b1-4)GlcNAc(b1-2)[Gal(b1-4)GlcNAc(b1-4)]Man(a1-3)[Gal(b1-4)GlcNAc(b1-2)[Gal(b1-4)GlcNAc(b1-6)]Man(a1-6)]Man(b1-4)GlcNAc(b1-4)GlcNAc
Summary of the method: as §1

[22] = molecular target: Gal(b1-4)GlcNAc(b1-2)[Gal(b1-4)GlcNAc(b1-4)]Man(a1-3)[GlcNAc(b1-4)][Gal(b1-4)GlcNAc(b1-2)Man(a1-6)]Man(b1-4)GlcNAc(b1-4)GlcNAc
Summary of the method: as §1

[23] = molecular target: Gal(b1-4)GlcNAc(b1-2)[Gal(b1-4)GlcNAc(b1-4)]Man(a1-3)[GlcNAc(b1-4)][Gal(b1-4)GlcNAc(b1-2)[Gal(b1-4)GlcNAc(b1-6)]Man(a1-6)]Man(b1-4)GlcNAc(b1-4)GlcNAc
Summary of the method: as §1

[24] = molecular target: Gal(b1-4)GlcNAc(b1-2)[Gal(b1-4)GlcNAc(b1-6)]Man(a1-6)[Gal(b1-4)GlcNAc(b1-2)Man(a1-3)]Man(b1-4)GlcNAc(b1-4)GlcNAc
Summary of the method: as §1

[25] = molecular target: Gal(b1-4)GlcNAc(b1-2)[Gal(b1-4)GlcNAc(b1-6)]Man(a1-6)[Gal(b1-4)GlcNAc(b1-2)Man(a1-3)]Man(b1-4)GlcNAc(b1-4)[Fuc(a1-6)]GlcNAc
Summary of the method: as §1

[26] = molecular target: Gal(b1-4)GlcNAc(b1-2)[Gal(b1-4)GlcNAc(b1-6)]Man(a1-6)[GlcNAc(b1-4)][Gal(b1-4)GlcNAc(b1-2)Man(a1-3)]Man(b1-4)GlcNAc(b1-4)GlcNAc
Summary of the method: as §1

[27] = molecular target: Gal(b1-4)GlcNAc(b1-2)[Gal(b1-4)GlcNAc(b1-6)]Man(a1-6)[GlcNAc(b1-4)][Gal(b1-4)GlcNAc(b1-2)[Gal(b1-4)GlcNAc(b1-4)]Man(a1-3)]Man(b1-4)GlcNAc(b1-4)[Fuc(a1-6)]GlcNAc
Summary of the method: as §1

[28] = molecular target: Gal(b1-4)GlcNAc(b1-3)Gal(b1-3)GalNAc
Summary of the method: as §1

[29] = molecular target: Gal(b1-4)GlcNAc(b1-3)Gal(b1-3)GlcNAc
Summary of the method: as §1

[30] = molecular target: Gal(b1-4)GlcNAc(b1-3)Gal(b1-4)Glc
Summary of the method: as §1

[31] = molecular target: Gal(b1-4)GlcNAc(b1-3)Gal(b1-4)GlcNAc
Summary of the method: as §1

[32] = molecular target: Gal(b1-4)GlcNAc(b1-3)Gal(b1-4)GlcNAc(b1-2)Man(a1-3)[Gal(b1-4)GlcNAc(b1-3)Gal(b1-4)GlcNAc(b1-2)Man(a1-6)]Man(b1-4)GlcNAc(b1-4)GlcNAc
Summary of the method: as §1

[33] = molecular target: Gal(b1-4)GlcNAc(b1-3)Gal(b1-4)GlcNAc(b1-2)Man(a1-3)[Gal(b1-4)GlcNAc(b1-3)Gal(b1-4)GlcNAc(b1-2)Man(a1-6)]Man(b1-4)GlcNAc(b1-4)[Fuc(a1-6)]GlcNAc
Summary of the method: as §1

B1: PX14343I-pdi-501-30-501 (Parabacteroides distasonis) (protein)
chain: SDQYSTETFWKTKEHASAGIMGCYNALKLWRSLHTMEFDMLTANAMPYNEANGTQAIGKGEHLSTTALIGSLWKNCYVGIGRTNTFIANVGGVDMDESEKAKMVGEAKFLRAFYYLSLVDKFGGVPLIIDAPNADEQAELPRNSKEEVVNQIVKDLEEAAAVLPDTYASSDLGRATKGAALALKARTLLYNSRWAEAAQAAKQVMESGVYQLFNDYRHFFSEDNKYNCEVIFDIEAKLPEYPTDYDQNIWRLNRPAPLKELVDTYLCVDGKTIEESPLYDPTRPYENRDPRLLKSIVCIGYPYLGKTITKEDVATTGFGVKKYTSYEDDVTIPLVERSAFNFILIRYAEVLLTYAEAQNEASGPDQSVYDAINQLRRRPDINMPEVPKGLTKDQMREVIRRERRIELTFEGLYYSDILRWKTAEKENNGMMHNYEGIEVVKRSFNPKRDYLWPIPYNQTVLNPNLEQNPNWD
[1]
  glycan array binding signal (z-score): -0.2
[2]
  glycan array binding signal (z-score): -0.042
[3]
  glycan array binding signal (z-score): -0.636
[4]
  glycan array binding signal (z-score): 0.19
[5]
  glycan array binding signal (z-score): -1.25
Gal(b1-4)Gal
  glycan array binding signal (z-score): 0.618
[6]
  glycan array binding signal (z-score): -0.249
[7]
  glycan array binding signal (z-score): -0.377
Gal(b1-4)Glc
  glycan array binding signal (z-score): -0.376
Gal(b1-4)Glc6S
  glycan array binding signal (z-score): 0.235
Gal(b1-4)GlcNAc
  glycan array binding signal (z-score): 0.888
[8]
  glycan array binding signal (z-score): -0.593
Gal(b1-4)GlcNAc(b1-2)Man
  glycan array binding signal (z-score): 0.196
[9]
  glycan array binding signal (z-score): -0.542
[10]
  glycan array binding signal (z-score): -0.373
[11]
  glycan array binding signal (z-score): -0.561
[12]
  glycan array binding signal (z-score): 1.06
[13]
  glycan array binding signal (z-score): -0.864
[14]
  glycan array binding signal (z-score): -0.685
[15]
  glycan array binding signal (z-score): -0.521
[16]
  glycan array binding signal (z-score): -0.562
[17]
  glycan array binding signal (z-score): -0.03
[18]
  glycan array binding signal (z-score): -0.651
[19]
  glycan array binding signal (z-score): 0.204
[20]
  glycan array binding signal (z-score): -0.319
[21]
  glycan array binding signal (z-score): -0.615
[22]
  glycan array binding signal (z-score): -0.449
[23]
  glycan array binding signal (z-score): -0.407
[24]
  glycan array binding signal (z-score): 0.762
[25]
  glycan array binding signal (z-score): 1.14
[26]
  glycan array binding signal (z-score): -0.439
[27]
  glycan array binding signal (z-score): -1
[28]
  glycan array binding signal (z-score): -0.11
[29]
  glycan array binding signal (z-score): -0.82
[30]
  glycan array binding signal (z-score): -0.191
[31]
  glycan array binding signal (z-score): 0.486
[32]
  glycan array binding signal (z-score): 1.61
[33]
  glycan array binding signal (z-score): 1.05
